According to PubChem BioAssay AID328 (DTP/NCI, 2004):
The list shows only some results of the screen, not a fair sample: it is rich in T/C values a quarter to a half above the control, in often repeated tests (any T/C) and in doses without a T/C. Further doses and runs are listed elsewhere. T/C is the treated group as % of the vehicle group. Some doses have a count of surviving animals in place of a T/C: the source files T/C as zero there, which appears to mark a toxic dose or a test without result, not a measured value. Some survivor counts are full or nearly so, which does not show that the dose was tolerated: survival well below the control is almost never listed, so the zero probably covers shortened survival too. Counts of survivors are from the toxicity check (mostly the fifth day) where no day follows; animals may have died later. Schedule codes are those of the source, read here as Q, the interval in days (D) or hours (H), X, the number of doses. Some doses were run more than once; their values stand side by side, smallest first. For survival time, the PubChem record calls one and a half times the control and up active, and a quarter to a half above the control has no call in these data; cut-offs in other NCI protocols can differ. Some T/C values are followed by the survivors on the day toxicity was checked, most often the fifth; where none is given, no animal had died by that day.

Tested on: BDF1 mice, P388 leukemia ip, median survival T/C
Test: NCI In Vivo Anticancer Drug Screen. Data for tumor model P388 Leukemia (intraperitoneal) in B6D2F1 (BDF1) mice
Details: T/C endpoint: median survival time, higher T/C = longer survival
Outline: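 Reported as T/C, where T is the survival measurement in dosed animals and C the same measurement in vehicle controls.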

[1] = dose: 200.0 mg/kg/injection, schedule: Q01DX009 (ip), vehicle: saline with Tween-80
[2] = dose: 400.0 mg/kg/injection, schedule: Q01DX009 (ip), vehicle: saline with Tween-80
[3] = dose: 50.0 mg/kg/injection, schedule: Q01DX009 (ip), vehicle: saline with Tween-80
[4] = dose: 200.0 mg/kg/injection, schedule: Q01DX009 (ip), vehicle: water
[5] = dose: 100.0 mg/kg/injection, schedule: Q04DX003 (ip), vehicle: saline

For `CC(C)CCCCCCCCCCCCC(=O)NCC(=O)NC1C(O)C(O)C(Nc2ncnc3nc[nH]c23)OC1C(O)CO` (stereo unspecified), the T/C (dose: 0.04 mg/kg/injection, schedule: Q01DX010 (ip), vehicle: carboxymethylcellulose (CMC)) was 130 % of control [5 of 6 alive], the T/C (dose: 0.09 mg/kg/injection, schedule: Q01DX010 (ip), vehicle: steroid suspending solution) was 135 % of control and the T/C (dose: 0.18 mg/kg/injection, schedule: Q01DX010 (ip), vehicle: steroid suspending solution) was 140 % of control. For the same compound, the survivor count (dose: 0.25 mg/kg/injection, schedule: Q01DX010 (ip), vehicle: steroid suspending solution) was 6 of 6, the survivor count (dose: 0.5 mg/kg/injection, schedule: Q01DX010 (ip), vehicle: steroid suspending solution) was 6 of 6 and the T/C (dose: 0.75 mg/kg/injection, schedule: Q01DX010 (ip), vehicle: steroid suspending solution) was 140 % of control. For the same compound, the survivor count (dose: 1.0 mg/kg/injection, schedule: Q01DX010 (ip), vehicle: steroid suspending solution) was 6 of 6, the survivor count (dose: 1.5 mg/kg/injection, schedule: Q01DX010 (ip), vehicle: steroid suspending solution) was 6 of 6 and the survivor count (dose: 3.0 mg/kg/injection, schedule: Q01DX010 (ip), vehicle: steroid suspending solution) was 6 of 6.
`C=Cc1ccccc1-c1ccccc1C(=O)OC` was tested, and the survivor count (dose: 100.0 mg/kg/injection, schedule: Q04DX003 (ip), vehicle: saline with Tween-80) was 6 of 6.
In the case of `CSc1nc(N)nc2nc[nH]c12`, the survivor count [1] is reported as 3 of 6.
For `Cc1cc(Cl)nc(Nc2ccccc2)n1`, the survivor count (dose: 12.5 mg/kg/injection, schedule: Q01DX009 (ip), vehicle: DMSO) was 6 of 6.
For `c1ccc2c(c1)C1c3ccccc3C2C2COCC12` (stereo unspecified), the survivor count (dose: 150.0 mg/kg/injection, schedule: Q01DX009 (ip), vehicle: Klucel (hydroxypropylcellulose) (HPC)) was 5 of 6, the survivor count (dose: 225.0 mg/kg/injection, schedule: Q01DX009 (ip), vehicle: Klucel (hydroxypropylcellulose) (HPC)) was 0 of 6 and the survivor count (dose: 335.0 mg/kg/injection, schedule: Q01DX009 (ip), vehicle: Klucel (hydroxypropylcellulose) (HPC)) was 0 of 6.
With `O=C1NS(=O)(=O)c2ccccc21` the survivor count [2] was 3 of 6.
For `Cc1ccc2c(c1)N=C(Nc1ccccc1)N=S2(C)=O` (stereo unspecified), the T/C [3] was 140 % of control [5 of 6 alive] and the survivor count [1] was 5 of 6.
With `Nc1cc(OCc2ccccc2)cc(OCc2ccccc2)c1` the survivor count [4] was 0 of 6 and 3 of 6 and the survivor count (dose: 400.0 mg/kg/injection, schedule: Q04DX003 (ip), vehicle: water) was 2 of 6 and 4 of 6.
In the case of `CC#CCOCC1CN(C)C(=O)O1` (stereo unspecified), the survivor count [5] is reported as 6 of 6.
In the case of `O=C(O)CNC1CSSC1`, the T/C (dose: 12.5 mg/kg/injection, schedule: Q01DX009 (ip), vehicle: water) is reported as 128 % of control, the T/C (dose: 100.0 mg/kg/injection, schedule: Q01DX009 (ip), vehicle: water) is reported as 128 % of control [5 of 6 alive] and the survivor count [4] is reported as 3 of 6. The survivor count (dose: 400.0 mg/kg/injection, schedule: Q01DX009 (ip), vehicle: water) was 0 of 6.
In the case of `CCCC(Sc1nc(N)nc2nc[nH]c12)C(=O)O` (stereo unspecified), the T/C (dose: 200.0 mg/kg/injection, schedule: Q01DX009 (ip), vehicle: saline sonified) is reported as 140 % of control.
In the case of `CC(=O)c1ccccc1-n1c(C)ccc1C`, the T/C (dose: 400.0 mg/kg/injection, schedule: Q01DX009 (ip), vehicle: saline + alcohol) is reported as 134 % of control.
With `CC1(CNC(=O)C(=O)NCC2(C)CO2)CO1` (stereo unspecified) the T/C (dose: 25.0 mg/kg/injection, schedule: Q04DX003 (ip), vehicle: saline with Tween-80) was 129 % of control, the survivor count [1] was 4 of 6 and the survivor count [2] was 3 of 6.
For `CC(=O)CC(C)=O.CC(=O)CC(C)=O.Cn1ccnc1.Cn1ccnc1.[Ni]`, the survivor count (dose: 100.0 mg/kg/injection, schedule: Q04DX002 (ip), vehicle: saline with Tween-80) was 1 of 6, the survivor count (dose: 200.0 mg/kg/injection, schedule: Q04DX002 (ip), vehicle: saline with Tween-80) was 0 of 6 and the survivor count (dose: 400.0 mg/kg/injection, schedule: Q04DX002 (ip), vehicle: saline with Tween-80) was 0 of 6.
With `C/C(=N/N(C)C)c1nc(N)nc(N)c1-c1ccc(Cl)cc1` the survivor count (dose: 200.0 mg/kg/injection, schedule: Q01DX001 (ip), vehicle: saline with Tween-80) was 0 of 6 and the survivor count (dose: 400.0 mg/kg/injection, schedule: Q01DX001 (ip), vehicle: saline with Tween-80) was 0 of 6.
For `CN(C)c1ccc(C(N)=O)cn1`, the survivor count (dose: 8.25 mg/kg/injection, schedule: Q01DX009 (ip), vehicle: saline) was 6 of 6, the survivor count (dose: 12.5 mg/kg/injection, schedule: Q01DX009 (ip), vehicle: saline with Tween-80) was 6 of 6 and the survivor count (dose: 16.5 mg/kg/injection, schedule: Q01DX009 (ip), vehicle: saline) was 6 of 6. For the same compound, the survivor count (dose: 25.0 mg/kg/injection, schedule: Q01DX009 (ip), vehicle: saline with Tween-80) was 5 of 6, the T/C (dose: 27.0 mg/kg/injection, schedule: Q04DX003 (ip), vehicle: saline) was 127 % of control and the survivor count [3] was 4 of 6.
For `CC1(C)N=C(N)N=C(N)N1c1cccc(Br)c1`, the T/C (dose: 6.2 mg/kg/injection, schedule: Q04DX003 (ip), vehicle: saline) was 138 % of control, the T/C (dose: 9.2 mg/kg/injection, schedule: Q04DX003 (ip), vehicle: saline) was 144 % of control and the T/C (dose: 14.0 mg/kg/injection, schedule: Q04DX003 (ip), vehicle: saline) was 127 % of control. For the same compound, the T/C (dose: 21.0 mg/kg/injection, schedule: Q04DX003 (ip), vehicle: saline) was 140 % of control, the survivor count [5] was 3 of 6 and the survivor count (dose: 200.0 mg/kg/injection, schedule: Q04DX003 (ip), vehicle: saline) was 0 of 6.
For `CN(c1ccccc1)c1ccc([N+](=O)[O-])c2no[n+]([O-])c12`, the T/C (dose: 60.0 mg/kg/injection, schedule: Q01DX009 (ip), vehicle: saline with Tween-80) was 131 % of control.
With `NOCc1cccc(Cl)c1` the survivor count (dose: 200.0 mg/kg/injection, schedule: Q04DX003 (ip), vehicle: saline with Tween-80) was 6 of 6.
`COc1ccc(/C=C/C(=O)c2ccc(Cl)cc2)c(OC)c1` was tested, and the survivor count (dose: 100.0 mg/kg/injection, schedule: Q01DX009 (ip), vehicle: saline with Tween-80) was 6 of 6.
In the case of `O=S1(=O)N2CN3CN(C2)CN1C3`, the T/C (dose: 25.0 mg/kg/injection, schedule: Q04DX003 (ip), vehicle: Klucel (hydroxypropylcellulose) (HPC)) is reported as 138 % of control.
In the case of `CCCOP(=S)(N1CC1)N1CC1`, the T/C (dose: 50.0 mg/kg/injection, schedule: Q01DX009 (ip), vehicle: Klucel (hydroxypropylcellulose) (HPC)) is reported as 135 % of control, the T/C (dose: 50.0 mg/kg/injection, schedule: Q01DX009 (ip), vehicle: other) is reported as 140 % of control and the T/C (dose: 100.0 mg/kg/injection, schedule: Q04DX003 (ip), vehicle: Klucel (hydroxypropylcellulose) (HPC)) is reported as 133 % of control. For the same compound, the survivor count (dose: 200.0 mg/kg/injection, schedule: Q01DX009 (ip), vehicle: Klucel (hydroxypropylcellulose) (HPC)) was 1 of 6 and the survivor count (dose: 400.0 mg/kg/injection, schedule: Q04DX003 (ip), vehicle: Klucel (hydroxypropylcellulose) (HPC)) was 1 of 6.
`CCN(CCO)CCNc1ccc(C)c2sc3ccccc3c(=O)c12` was tested, and the T/C [3] was 145 % of control and the T/C (dose: 150.0 mg/kg/injection, schedule: Q04DX003 (ip), vehicle: saline with Tween-80) was 146 % of control.
For `Cc1ccc(N2CC(=O)N3CCCN3C(=O)C2)cc1`, the survivor count (dose: 50.0 mg/kg/injection, schedule: Q01DX005 (ip), vehicle: saline with Tween-80) was 5 of 5, the survivor count (dose: 100.0 mg/kg/injection, schedule: Q01DX005 (ip), vehicle: saline with Tween-80) was 5 of 5 and the survivor count (dose: 200.0 mg/kg/injection, schedule: Q01DX005 (ip), vehicle: saline with Tween-80) was 5 of 5.
